Reference: the supplement of paper PMC8256030
Values joined by “and” are separate entries in the source; they are usually repeats but may differ in a detail not shown here. Equal values may be shown once. This is one part of the list. This data set is noisy: repeats of one test often differ as much as different tests do.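 HEK293T cells were given each compound shortly before transfection with a reporter in which red mCherry is followed by the SARS-CoV-2 frameshift element and then GFP in the −1 frame, so GFP appears only after frameshifting.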

What was measured:
[1] = system: SARS-CoV-2 -1 PRF reporter mCherry-FSE-GFP(-1); test: mCherry (red) intensity as percent of control; higher = higher upstream reporter expression; conditions: 10 µM; 24 h; HEK293T
[2] = system: SARS-CoV-2 -1 PRF reporter mCherry-FSE-GFP(-1); test: percent effect, decrease of GFP/mCherry ratio (-1 PRF reporter) relative to controls; higher = stronger frameshift inhibition; conditions: 10 µM; 24 h; HEK293T

| Structure (SMILES) | mCherry [1] | percent effect [2] |
| --- | --- | --- |
| CC(C)(CO)CCCCCCC(C)(C)CO [gemcadiol] | 147% | -4.24% |
| COCCCOc1cc(C[C@@H](C[C@H](N)[C@@H](O)C[C@H](C(=O)NCC(C)(C)C(N)=O)C(C)C)C(C)C)ccc1OC | 148% | 1.95% |
| O=C(O)CN1C[C@@H](c2cccs2)SC[C@H](N[C@@H](CCc2ccccc2)C(=O)O)C1=O [temocaprilat] | 76% | 4.12% |
| CC(C)NC[C@H](O)c1ccc(O)c(O)c1 [levisoprenaline] | 91.1% | -1.24% |
| CCC[S+]([O-])c1ccc2[nH]c(NC(=O)OC)nc2c1 (centres undefined) [albendazole oxide] | 95.2% | -0.514% |
| CCCCCNC(=N)N/N=C/c1c[nH]c2ccc(OC)cc12 | 104% | -0.388% |
| CC(=O)N(CC(O)CO)c1c(I)c(C(=O)NCCO)c(I)c(C(=O)NCC(O)CO)c1I (centres undefined) [ioxilan] | 127% | -1.33% |
| OCCN(CCO)c1nc(N2CCCCC2)c2nc(N(CCO)CCO)nc(N3CCCCC3)c2n1 [dipyridamole] | 97.4% and 86% | -10.7% and -11.3% |
| CN1CCCCC1CCN1c2ccccc2Sc2ccc([S+](C)[O-])cc21 (centres undefined) | 92.9% | -1.69% |
| Clc1ccc(C(c2ccccc2Cl)C(Cl)Cl)cc1 (centres undefined) [mitotane] | 132% | 3.54% |
| CC(=O)O[C@@]12CO[C@@H]1C[C@H](O)[C@@]1(C)C(=O)[C@H](O)C3=C(C)[C@@H](OC(=O)[C@H](O)[C@@H](NC(=O)OC(C)(C)C)c4ccccc4)C[C@@](O)([C@@H](OC(=O)c4ccccc4)[C@H]21)C3(C)C | 121% | -1.26% |
| CCN1CCCC1CNC(=O)c1cc(S(N)(=O)=O)ccc1OC (centres undefined) | 76.7% | -1.87% |

Single records (already shown). Order of values: mCherry [1]	percent effect [2]
CCCCCNC(=N)N/N=C/c1c[nH]c2ccc(OC)cc12 reads 104%	-0.388%
Clc1ccc(C(c2ccccc2Cl)C(Cl)Cl)cc1 (centres undefined) [mitotane] reads 132%	3.54%
